Results are given in words; binding and its absence hold for the method and conditions named. Binding seen in cells or lysates may run through a third protein. Some binding calls cover weakened binding; strength is not graded here.
Key:
[1] = biological target: NRP1 (Neuropilin-1), endogenous in mouse HSCs (mouse (endogenous in primary mouse HSCs and murine HSCs)) (UniProt P97333); experiment: co-IP; endogenous proteins; lysates (NETN buffer) of primary mouse HSCs and murine HSCs, 400 μg cell extract; IP with NRP1 or USP9X antibody overnight at 4 °C, protein A/G agarose beads, WB; IgG as isotype control
[2] = biological target: Flag-NRP1, co-transfected in HEK293T cells (murine) (UniProt P97333); experiment: co-IP; HEK293T cells cotransfected with Myc-USP9X and Flag-NRP1 or their deletion mutants for 24 h; IP of lysates with Flag beads (panel H: 'His beads'), IB with antibodies against Flag and Myc

By UniProt entry, the sequences of proteins in these tests, tags left out.
UniProt P70398: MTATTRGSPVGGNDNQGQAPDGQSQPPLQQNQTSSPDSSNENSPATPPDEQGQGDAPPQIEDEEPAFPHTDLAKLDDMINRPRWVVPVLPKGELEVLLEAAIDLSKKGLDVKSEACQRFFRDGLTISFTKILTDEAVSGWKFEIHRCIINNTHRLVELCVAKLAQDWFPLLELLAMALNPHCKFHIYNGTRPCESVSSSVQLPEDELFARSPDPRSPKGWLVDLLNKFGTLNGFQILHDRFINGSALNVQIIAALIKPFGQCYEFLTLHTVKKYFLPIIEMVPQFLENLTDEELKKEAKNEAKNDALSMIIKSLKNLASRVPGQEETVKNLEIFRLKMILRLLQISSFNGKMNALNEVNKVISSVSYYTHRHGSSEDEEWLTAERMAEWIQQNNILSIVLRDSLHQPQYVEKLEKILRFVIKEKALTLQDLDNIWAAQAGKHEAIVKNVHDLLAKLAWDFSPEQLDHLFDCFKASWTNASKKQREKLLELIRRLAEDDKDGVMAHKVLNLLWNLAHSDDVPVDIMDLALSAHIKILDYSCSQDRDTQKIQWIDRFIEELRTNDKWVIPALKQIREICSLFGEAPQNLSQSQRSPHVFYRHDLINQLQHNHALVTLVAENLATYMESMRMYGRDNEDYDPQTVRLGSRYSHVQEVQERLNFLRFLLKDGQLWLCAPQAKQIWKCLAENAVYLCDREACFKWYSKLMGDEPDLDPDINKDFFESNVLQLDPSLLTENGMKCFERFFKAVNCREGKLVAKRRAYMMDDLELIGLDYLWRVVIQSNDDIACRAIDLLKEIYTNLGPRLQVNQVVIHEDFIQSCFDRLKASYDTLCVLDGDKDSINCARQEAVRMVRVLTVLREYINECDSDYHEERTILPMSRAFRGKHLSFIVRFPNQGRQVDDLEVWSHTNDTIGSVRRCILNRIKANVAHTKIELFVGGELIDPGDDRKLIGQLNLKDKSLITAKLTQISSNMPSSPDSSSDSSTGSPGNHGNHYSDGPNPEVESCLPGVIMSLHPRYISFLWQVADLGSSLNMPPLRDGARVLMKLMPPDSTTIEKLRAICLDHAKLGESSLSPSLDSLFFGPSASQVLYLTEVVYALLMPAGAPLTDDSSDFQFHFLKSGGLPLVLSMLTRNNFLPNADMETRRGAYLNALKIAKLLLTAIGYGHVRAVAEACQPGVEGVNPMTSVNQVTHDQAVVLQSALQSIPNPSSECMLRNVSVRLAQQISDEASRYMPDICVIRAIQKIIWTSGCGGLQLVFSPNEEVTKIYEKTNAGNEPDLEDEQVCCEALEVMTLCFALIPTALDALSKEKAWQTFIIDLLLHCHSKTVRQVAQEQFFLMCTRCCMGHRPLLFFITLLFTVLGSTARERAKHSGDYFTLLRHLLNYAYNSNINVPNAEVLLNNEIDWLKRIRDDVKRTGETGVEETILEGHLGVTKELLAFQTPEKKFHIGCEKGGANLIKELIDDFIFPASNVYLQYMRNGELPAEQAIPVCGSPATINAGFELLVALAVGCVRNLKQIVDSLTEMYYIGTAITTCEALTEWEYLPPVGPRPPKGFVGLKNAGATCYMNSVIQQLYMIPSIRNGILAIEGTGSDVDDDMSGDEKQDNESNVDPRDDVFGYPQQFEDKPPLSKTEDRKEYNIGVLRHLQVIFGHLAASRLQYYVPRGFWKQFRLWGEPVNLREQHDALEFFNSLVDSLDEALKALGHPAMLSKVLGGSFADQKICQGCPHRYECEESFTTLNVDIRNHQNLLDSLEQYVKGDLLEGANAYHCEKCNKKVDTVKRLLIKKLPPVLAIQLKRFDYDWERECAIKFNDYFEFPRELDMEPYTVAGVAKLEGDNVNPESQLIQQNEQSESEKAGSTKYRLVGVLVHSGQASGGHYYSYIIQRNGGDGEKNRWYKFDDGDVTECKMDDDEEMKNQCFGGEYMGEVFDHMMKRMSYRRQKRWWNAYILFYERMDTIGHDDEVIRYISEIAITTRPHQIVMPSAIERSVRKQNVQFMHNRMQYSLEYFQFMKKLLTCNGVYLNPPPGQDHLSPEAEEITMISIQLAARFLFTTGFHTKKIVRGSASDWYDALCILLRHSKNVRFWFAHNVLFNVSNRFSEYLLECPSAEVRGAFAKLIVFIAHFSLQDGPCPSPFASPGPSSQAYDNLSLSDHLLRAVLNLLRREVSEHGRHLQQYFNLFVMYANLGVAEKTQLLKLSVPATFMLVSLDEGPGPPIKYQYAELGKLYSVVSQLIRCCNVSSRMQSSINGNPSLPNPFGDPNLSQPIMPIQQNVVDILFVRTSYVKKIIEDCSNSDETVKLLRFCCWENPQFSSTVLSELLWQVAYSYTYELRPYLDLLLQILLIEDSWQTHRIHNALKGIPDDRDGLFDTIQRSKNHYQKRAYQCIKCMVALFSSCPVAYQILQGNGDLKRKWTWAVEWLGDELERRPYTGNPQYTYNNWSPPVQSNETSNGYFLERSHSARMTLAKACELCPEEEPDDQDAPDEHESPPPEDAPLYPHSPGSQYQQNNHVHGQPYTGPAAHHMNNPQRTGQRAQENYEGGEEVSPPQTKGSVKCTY

| binding [1] | binding [2] | Substance |
| --- | --- | --- |
| binds | – | USP9X (ubiquitin-specific peptidase 9X), endogenous in mouse HSCs (from UniProt P70398 1-2559) (enzyme) |
| – | binds | Myc-USP9X, co-transfected in HEK293T cells (from UniProt P70398 1-2559) (enzyme) |

Source: PMC9849111
